{"source": "paper PMC8047169", "binders": {"B1": {"name": "His-CowN (Gluconacetobacter diazotrophicus CowN, His-tagged, refolded, monomeric fraction) (protein, UniProt A9H4F6 1-91)", "chain": "MTEQIDRYVSFRNVEWERRTAEVFALLQPHFDGSTSPFWDYFLRQRVIAHAQGLDDLRVLHNFLPTLKDLLEELDDERTLSRLEELEVLCM"}, "B2": {"name": "iron-protein (FeP) of Gluconacetobacter diazotrophicus Mo-nitrogenase (protein, UniProt Q9ZIE4 1-298)", "chain": "MSKLRQIAFYGKGGIGKSTTSQNTLAALVEMGQKILIVGCDPKADSTRLILNAKAQDTVLSLAAEAGSVEDLELEDVLKIGYKGIKCVESGGPEPGVGCAGRGVITSINFLEENGAYDDVDYVSYDVLGDVVCGGFAMPIRENKAQEIYIVMSGEMMALYAANNIAKGILKYAHSGGVRLGGLICNERQTDREYDLADALAKRLNSKLVHFVPRANIVQHAELRKQTVIEYAPDSAQAGEYRTLAQKIHANSGQGTVPTPITMEELEDMLLEFGIMKTDEQALAELAAKEAKAAAALA"}}, "key": {"[1]": {"biological_target": "T1, His-CowN (Gluconacetobacter diazotrophicus CowN, His-tagged, refolded, monomeric fraction) (Gluconacetobacter diazotrophicus) (UniProt A9H4F6)", "T1 sequence": "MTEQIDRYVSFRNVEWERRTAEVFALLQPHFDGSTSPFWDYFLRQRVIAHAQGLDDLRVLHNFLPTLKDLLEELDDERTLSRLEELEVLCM", "experiment": "SEC + other: dynamic light scattering; S75 gel filtration and DLS at room temperature, 25 mM HEPES pH 8, 25 mM NaCl; gel filtration size 19.4 kDa, DLS radius 1.96 ± 0.25 nm (15 to 18 kDa); both purified"}, "[2]": {"biological_target": "T2, iron-protein (FeP) of Gluconacetobacter diazotrophicus Mo-nitrogenase (Gluconacetobacter diazotrophicus) (UniProt Q9ZIE4)", "T2 sequence": "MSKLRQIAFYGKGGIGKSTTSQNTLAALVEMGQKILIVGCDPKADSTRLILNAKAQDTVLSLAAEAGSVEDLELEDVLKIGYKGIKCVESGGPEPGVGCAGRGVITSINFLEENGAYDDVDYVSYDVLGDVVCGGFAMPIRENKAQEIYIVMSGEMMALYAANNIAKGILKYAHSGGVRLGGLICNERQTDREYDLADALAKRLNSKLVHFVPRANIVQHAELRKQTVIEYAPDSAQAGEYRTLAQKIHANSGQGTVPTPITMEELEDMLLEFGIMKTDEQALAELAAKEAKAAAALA", "experiment": "cross-linking; EDC 12.5 mM, 30 min; 50 mM HEPES pH 8, 60 mM NaCl, 5 mM DT; 2.5 μM MoFeP, 15 μM FeP, 15 μM CowN; nonturnover and turnover (5 mM MgCl2, 5 mM ATP) conditions with 0.1 atm CO; SDS-PAGE; both purified"}, "[3]": {"biological_target": "T1, His-CowN (Gluconacetobacter diazotrophicus CowN, His-tagged, refolded, monomeric fraction) (Gluconacetobacter diazotrophicus)", "experiment": "pull-down; His-CowN on Ni-NTA resin, 10 min incubation, three washes; 50 mM Tris pH 8, 60 mM NaCl, 1 mM DT; 2.5 μM MoFeP, 15 μM FeP, 15 μM CowN; nonturnover and turnover conditions with CO; SDS-PAGE; both purified"}}, "note": "Results are given in words; binding and its absence hold for the method and conditions named. Tags and fused reporters may be left off the sequences shown.", "data": [{"binder": "B1", "values": [{"measurement": "binding", "setting": "[1]", "value": "no binding"}, {"measurement": "binding", "setting": "[2]", "value": "no binding (tested: 15 μM CowN, 15 μM FeP)"}]}, {"binder": "B2", "values": [{"measurement": "binding", "setting": "[3]", "value": "no binding (tested: 15 μM CowN, 15 μM FeP)"}]}]}
